Experimental data: patent US6958318B2, “Recombinant bacterial cells for delivery of PNP to tumor cells” (The UAB Research Foundation, priority 1993, dated 2005)

Sequences of proteins named here, by UniProt entry; tags and fusion partners are left off. Residues count along the entry.
UniProt P0ABP8, 2-239: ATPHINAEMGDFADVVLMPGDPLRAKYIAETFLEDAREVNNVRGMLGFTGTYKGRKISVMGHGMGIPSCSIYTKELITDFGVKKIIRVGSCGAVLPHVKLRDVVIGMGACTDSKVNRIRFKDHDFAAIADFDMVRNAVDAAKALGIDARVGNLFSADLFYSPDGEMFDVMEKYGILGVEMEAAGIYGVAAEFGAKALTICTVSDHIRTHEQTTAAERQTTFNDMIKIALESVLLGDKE

Molecular target: E. coli PNP (Escherichia coli, UniProt P0ABP8)
Type: biochemical

Nc1ncnc2c1ncn2[C@H]1O[C@H](CO)[C@@H](O)[C@H]1O [α-adenosine]
Substrate quality for bacterial (E. coli) PNP: moderate substrates
